Results: article PMC7481406, “Bifunctional supramolecular nanofiber inhibits atherosclerosis by enhancing plaque stability and anti-inflammation in apoE^-/- mice” (Theranostics, 2020)

Amino acid sequences for entries named in this document (tags omitted). Residues count along the entry.
UniProt P08069, 31-1367: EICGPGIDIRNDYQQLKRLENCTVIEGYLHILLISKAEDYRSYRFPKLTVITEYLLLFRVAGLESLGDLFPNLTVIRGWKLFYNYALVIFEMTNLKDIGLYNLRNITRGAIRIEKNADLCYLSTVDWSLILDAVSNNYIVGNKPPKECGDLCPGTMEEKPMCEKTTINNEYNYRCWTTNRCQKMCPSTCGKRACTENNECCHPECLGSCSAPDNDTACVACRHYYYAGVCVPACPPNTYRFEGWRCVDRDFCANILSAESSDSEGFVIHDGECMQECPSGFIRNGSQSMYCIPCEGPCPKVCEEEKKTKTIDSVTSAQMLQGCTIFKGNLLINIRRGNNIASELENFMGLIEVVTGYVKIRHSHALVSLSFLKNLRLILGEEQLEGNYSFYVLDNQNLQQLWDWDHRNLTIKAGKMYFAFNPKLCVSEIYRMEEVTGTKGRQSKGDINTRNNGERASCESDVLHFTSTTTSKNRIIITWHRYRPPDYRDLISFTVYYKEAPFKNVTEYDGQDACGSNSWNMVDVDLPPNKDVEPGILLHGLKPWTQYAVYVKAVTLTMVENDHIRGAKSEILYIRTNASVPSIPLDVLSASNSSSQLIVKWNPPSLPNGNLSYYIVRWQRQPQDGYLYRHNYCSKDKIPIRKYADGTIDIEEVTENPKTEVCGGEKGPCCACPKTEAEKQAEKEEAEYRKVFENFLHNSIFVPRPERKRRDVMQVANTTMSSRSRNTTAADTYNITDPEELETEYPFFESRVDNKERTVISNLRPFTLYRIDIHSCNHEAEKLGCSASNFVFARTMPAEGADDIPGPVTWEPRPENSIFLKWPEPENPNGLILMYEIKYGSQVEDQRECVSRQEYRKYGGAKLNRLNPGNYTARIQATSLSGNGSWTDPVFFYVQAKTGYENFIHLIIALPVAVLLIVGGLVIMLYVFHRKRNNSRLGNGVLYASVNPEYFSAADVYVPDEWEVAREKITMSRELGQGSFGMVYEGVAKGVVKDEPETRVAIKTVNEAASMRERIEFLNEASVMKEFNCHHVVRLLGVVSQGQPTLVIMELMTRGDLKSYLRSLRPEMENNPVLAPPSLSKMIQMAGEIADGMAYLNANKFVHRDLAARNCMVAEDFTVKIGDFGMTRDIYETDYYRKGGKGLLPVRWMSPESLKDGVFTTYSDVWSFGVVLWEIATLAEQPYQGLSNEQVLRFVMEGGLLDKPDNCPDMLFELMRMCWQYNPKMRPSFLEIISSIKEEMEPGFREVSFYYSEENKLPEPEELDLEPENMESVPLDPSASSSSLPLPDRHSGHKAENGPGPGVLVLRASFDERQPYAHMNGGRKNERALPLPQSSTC

Molecular target: recombinant human Insulin-like Growth Factor-I Receptor (rhIGF-1R) (Homo sapiens, UniProt P08069)
Test: Microscale thermophoresis binding to rhIGF-1R
Text: The transparency of the prepared hydrogel in the visible light range of 380 nm-780 nm is detected by UV-Vis spectroscopy (Lambda 35 UV/Vis Spectrometer, Perkin-Elmer). […] Therefore, we conducted microscale thermophoresis experiments to determine their binding affinity to recombinant human Insulin-like Growth Factor-I Receptor (rhIGF-1R).
rhIGF-1R was labeled with the fluorescent dye NT-647 using a Monolith NT™ Protein Labelling Kit (cysteine-reactive) (NanoTemper Technologies, Germany). PBS buffer containing 0.05% Tween 20 (pH 7.4) was used as the assay buffer. For the interaction experiments of fluorescent proteins with Compound 1, 2, 3or 4, the concentration of labeled proteins were kept constant, while the concentration of Compound 1, 2, 3or 4 varied from 0.054 nM to 2 μM. Then, the solution of fluorescent proteins was mixed with solutions containing different concentrations of Compound 1, 2, 3or 4 at 1:1 volume ratio. After a short incubation time, the samples were loaded into MST NT.115 standard glass capillaries and the analysis was performed using the Monolith NT.115 system (NanoTemper Technologies, Germany). The KD value was calculated using the NanoTemper software package.

Kd	SMILES
173 nM	COc1ccc2cc([C@H](C)C(=O)N[C@@H](Cc3ccccc3)C(=O)N[C@@H](Cc3ccccc3)C(=O)NCC(=O)N[C@@H](CO)C(=O)N[C@@H](CO)C(=O)N[C@@H](CO)C(=O)N[C@@H](CCCNC(=N)N)C(=O)O)ccc2c1 [Compound H2, Npx-FFGSSSR]
145 nM	COc1ccc2cc([C@H](C)C(=O)N[C@H](Cc3ccccc3)C(=O)N[C@H](Cc3ccccc3)C(=O)NCC(=O)N[C@@H](CO)C(=O)N[C@@H](CO)C(=O)N[C@@H](CO)C(=O)N[C@@H](CCCNC(=N)N)C(=O)O)ccc2c1 [Compound H1, Npx-^DF^DFGSSSR]
